Laboratory results as given in the supplement of paper PMC10849652.
Some of the results follow.

Chains of the proteins cited; added tags and fusions are not shown. Lines headed by an entry give the natural chain unless they say otherwise; changes in a name come on top.
UniProt Q9H2K8: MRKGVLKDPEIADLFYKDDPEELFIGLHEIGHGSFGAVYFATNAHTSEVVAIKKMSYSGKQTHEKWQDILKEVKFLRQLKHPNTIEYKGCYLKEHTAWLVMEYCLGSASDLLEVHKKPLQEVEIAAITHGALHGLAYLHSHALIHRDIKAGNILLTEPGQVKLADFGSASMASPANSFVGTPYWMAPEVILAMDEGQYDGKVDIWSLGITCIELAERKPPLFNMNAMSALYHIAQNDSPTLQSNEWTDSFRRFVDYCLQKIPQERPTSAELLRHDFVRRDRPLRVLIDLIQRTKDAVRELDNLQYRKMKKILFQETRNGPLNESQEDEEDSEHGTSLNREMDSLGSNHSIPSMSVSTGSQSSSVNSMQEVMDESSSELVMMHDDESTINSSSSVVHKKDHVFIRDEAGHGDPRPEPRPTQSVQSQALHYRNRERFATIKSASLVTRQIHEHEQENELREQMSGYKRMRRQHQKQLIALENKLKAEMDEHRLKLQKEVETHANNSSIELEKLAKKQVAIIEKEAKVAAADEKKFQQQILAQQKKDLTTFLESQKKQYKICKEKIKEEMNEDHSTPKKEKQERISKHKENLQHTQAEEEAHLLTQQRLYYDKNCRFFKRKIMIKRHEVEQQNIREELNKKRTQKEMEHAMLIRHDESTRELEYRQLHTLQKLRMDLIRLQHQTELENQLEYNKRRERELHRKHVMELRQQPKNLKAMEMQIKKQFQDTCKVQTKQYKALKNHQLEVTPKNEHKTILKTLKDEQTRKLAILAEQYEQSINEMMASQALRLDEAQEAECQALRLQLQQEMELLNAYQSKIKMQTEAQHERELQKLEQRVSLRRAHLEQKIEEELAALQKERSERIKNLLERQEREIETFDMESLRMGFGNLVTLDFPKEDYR
UniProt Q92844: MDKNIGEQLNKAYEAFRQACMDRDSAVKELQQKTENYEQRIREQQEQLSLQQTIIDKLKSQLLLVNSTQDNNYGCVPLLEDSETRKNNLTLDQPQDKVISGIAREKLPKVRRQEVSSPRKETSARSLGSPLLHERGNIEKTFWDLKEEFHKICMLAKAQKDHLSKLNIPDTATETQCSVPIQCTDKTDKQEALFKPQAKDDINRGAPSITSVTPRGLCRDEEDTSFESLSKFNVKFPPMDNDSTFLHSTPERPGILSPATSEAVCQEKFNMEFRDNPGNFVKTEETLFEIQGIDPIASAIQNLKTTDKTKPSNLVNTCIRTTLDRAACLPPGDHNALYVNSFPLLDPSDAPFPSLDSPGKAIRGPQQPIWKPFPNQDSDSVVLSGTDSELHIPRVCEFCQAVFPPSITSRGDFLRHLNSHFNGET
UniProt Q96BZ9: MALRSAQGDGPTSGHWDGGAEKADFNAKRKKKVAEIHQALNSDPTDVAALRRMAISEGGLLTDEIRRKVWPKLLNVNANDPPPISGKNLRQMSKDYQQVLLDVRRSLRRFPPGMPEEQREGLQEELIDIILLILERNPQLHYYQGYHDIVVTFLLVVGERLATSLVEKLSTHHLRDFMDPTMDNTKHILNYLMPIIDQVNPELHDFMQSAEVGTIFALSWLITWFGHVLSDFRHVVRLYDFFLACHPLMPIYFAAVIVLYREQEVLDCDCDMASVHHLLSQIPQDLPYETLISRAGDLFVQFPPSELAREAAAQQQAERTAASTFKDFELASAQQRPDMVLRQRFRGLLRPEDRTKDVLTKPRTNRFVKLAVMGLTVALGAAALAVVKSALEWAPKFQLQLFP
UniProt Q7L7X3: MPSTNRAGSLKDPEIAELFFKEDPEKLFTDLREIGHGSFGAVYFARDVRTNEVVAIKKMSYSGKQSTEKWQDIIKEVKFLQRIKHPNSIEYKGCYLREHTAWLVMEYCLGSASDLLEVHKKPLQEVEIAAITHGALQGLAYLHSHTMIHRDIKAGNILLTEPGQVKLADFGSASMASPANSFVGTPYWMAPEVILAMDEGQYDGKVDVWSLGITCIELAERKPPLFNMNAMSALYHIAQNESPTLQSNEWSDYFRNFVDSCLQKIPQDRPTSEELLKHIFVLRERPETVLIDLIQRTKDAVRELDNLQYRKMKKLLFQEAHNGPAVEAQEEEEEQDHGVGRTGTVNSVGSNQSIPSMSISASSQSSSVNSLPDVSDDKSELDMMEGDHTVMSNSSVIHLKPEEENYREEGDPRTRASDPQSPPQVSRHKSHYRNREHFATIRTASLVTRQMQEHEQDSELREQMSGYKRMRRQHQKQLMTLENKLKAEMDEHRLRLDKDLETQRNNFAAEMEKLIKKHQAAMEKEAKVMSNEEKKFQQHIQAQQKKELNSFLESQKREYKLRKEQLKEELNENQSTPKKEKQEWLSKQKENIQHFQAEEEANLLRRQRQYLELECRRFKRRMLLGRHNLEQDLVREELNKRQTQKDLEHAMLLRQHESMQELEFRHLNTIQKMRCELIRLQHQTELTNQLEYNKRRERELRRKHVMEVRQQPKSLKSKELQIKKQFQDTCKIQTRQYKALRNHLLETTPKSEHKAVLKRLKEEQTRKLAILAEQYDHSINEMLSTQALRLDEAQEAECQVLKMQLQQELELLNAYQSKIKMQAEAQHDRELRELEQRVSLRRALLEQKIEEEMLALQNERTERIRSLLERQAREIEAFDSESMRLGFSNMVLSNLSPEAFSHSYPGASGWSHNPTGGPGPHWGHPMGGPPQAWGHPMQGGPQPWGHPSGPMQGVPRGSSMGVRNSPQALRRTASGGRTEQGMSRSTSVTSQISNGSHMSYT
UniProt Q9UBB9: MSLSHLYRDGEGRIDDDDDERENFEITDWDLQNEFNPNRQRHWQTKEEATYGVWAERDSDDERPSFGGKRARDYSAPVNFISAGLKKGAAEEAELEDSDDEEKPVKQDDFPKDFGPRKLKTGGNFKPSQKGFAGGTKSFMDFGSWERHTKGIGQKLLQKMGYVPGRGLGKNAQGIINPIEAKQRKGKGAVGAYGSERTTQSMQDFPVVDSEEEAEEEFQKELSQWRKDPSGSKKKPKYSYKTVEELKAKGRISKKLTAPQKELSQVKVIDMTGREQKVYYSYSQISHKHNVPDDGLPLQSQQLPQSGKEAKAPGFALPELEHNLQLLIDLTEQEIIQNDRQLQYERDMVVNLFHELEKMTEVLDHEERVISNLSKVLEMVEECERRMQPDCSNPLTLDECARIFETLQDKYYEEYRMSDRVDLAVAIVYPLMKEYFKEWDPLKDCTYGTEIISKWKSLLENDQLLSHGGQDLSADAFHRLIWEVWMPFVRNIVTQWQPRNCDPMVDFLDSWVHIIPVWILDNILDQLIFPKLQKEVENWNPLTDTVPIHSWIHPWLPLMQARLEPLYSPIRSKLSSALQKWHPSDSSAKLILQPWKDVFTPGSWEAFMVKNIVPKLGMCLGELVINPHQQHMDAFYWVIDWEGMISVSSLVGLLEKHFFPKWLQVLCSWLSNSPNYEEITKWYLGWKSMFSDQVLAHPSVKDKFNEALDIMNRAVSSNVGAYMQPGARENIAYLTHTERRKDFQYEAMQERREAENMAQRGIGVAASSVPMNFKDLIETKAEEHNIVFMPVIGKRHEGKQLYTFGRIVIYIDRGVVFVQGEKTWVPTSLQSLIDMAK
UniProt Q14186: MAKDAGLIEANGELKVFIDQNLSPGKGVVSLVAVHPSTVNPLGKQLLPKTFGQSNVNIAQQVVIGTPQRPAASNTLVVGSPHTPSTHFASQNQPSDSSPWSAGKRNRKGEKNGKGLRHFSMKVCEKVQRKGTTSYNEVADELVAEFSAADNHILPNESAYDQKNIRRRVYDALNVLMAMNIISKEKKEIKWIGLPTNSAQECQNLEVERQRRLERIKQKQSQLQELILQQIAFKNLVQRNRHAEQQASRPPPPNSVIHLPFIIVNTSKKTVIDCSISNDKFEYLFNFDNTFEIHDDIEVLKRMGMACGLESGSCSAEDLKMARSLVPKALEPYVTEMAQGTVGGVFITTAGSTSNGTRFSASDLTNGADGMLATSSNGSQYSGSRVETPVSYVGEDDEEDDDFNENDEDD
UniProt Q8NFU7: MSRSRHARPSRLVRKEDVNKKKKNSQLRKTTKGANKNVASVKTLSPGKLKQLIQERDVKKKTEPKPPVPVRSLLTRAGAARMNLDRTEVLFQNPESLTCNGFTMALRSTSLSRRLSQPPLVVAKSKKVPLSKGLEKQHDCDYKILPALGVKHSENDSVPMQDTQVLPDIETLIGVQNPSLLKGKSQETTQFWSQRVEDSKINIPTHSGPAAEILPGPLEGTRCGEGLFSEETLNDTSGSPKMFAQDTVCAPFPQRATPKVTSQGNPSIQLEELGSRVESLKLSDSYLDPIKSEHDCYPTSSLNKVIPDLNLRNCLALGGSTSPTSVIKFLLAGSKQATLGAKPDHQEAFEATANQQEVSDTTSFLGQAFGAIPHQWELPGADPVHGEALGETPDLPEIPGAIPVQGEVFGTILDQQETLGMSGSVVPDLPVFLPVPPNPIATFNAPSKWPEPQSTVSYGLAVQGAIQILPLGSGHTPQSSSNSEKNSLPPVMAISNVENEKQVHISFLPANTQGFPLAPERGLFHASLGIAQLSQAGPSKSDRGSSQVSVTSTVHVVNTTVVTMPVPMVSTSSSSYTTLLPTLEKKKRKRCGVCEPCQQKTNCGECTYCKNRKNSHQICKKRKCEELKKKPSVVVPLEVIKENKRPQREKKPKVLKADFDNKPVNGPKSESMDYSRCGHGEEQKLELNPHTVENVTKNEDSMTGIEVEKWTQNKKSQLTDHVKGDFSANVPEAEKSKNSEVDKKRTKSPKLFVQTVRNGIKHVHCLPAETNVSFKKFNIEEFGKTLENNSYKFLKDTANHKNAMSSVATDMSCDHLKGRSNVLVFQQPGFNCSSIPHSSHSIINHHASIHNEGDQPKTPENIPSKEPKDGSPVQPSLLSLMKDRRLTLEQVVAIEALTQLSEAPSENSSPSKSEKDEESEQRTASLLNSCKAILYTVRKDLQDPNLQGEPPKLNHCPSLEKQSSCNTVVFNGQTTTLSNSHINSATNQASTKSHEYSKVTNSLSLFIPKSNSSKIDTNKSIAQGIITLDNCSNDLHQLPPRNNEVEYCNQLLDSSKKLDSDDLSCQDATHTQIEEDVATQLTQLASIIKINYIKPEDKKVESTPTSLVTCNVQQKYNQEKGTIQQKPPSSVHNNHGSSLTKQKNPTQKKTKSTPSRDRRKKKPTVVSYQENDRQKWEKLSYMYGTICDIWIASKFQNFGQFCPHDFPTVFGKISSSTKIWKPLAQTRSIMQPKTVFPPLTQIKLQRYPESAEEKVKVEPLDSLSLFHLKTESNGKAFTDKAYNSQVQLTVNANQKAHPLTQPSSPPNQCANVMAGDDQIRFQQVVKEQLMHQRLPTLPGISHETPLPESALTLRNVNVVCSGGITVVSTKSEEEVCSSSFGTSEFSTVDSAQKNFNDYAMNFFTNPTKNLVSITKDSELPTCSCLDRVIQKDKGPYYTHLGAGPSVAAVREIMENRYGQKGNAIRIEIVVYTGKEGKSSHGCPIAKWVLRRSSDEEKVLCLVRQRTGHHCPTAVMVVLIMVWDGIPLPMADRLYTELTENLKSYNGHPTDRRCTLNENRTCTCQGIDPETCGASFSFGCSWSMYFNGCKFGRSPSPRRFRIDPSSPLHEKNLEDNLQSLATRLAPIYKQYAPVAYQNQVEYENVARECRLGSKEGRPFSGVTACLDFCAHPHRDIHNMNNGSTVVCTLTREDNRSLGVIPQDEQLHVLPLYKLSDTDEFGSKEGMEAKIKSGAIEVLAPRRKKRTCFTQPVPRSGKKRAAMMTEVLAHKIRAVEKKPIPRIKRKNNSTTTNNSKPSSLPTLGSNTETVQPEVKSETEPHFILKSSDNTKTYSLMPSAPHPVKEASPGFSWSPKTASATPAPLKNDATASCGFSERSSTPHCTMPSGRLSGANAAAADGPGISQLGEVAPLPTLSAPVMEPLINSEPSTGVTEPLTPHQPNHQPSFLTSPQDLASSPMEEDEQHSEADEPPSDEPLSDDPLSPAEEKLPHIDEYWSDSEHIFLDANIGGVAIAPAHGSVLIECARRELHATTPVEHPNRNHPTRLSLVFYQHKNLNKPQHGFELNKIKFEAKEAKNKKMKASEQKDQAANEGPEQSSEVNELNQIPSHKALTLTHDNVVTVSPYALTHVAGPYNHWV
UniProt Q7Z7C8, whole entry, looked up: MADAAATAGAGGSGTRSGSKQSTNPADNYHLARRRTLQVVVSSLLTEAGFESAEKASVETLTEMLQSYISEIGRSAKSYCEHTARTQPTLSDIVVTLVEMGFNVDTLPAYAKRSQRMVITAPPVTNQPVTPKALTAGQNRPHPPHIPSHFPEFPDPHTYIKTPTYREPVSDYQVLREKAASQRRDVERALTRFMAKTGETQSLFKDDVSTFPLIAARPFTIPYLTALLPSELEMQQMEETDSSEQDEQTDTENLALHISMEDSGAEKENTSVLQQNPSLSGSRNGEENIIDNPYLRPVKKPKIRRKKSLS

Compound: Cc1cc(Nc2cc(CN3CCOCC3)c3nc(C)c(Cc4ccc(Cl)cc4F)n3n2)n[nH]1 [gandotinib]
Experiment: log2 fold change, soluble protein after heating vs DMSO (PISA); higher = thermal stabilisation; K562 lysate, 10 uM; active = over 0.2 and 3.5 SD of the protein, either way, in both replicates (recomputed)
In short: (§1)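 Following dounce homogenisation of K562 pellets in PBS pH 7.4 with 1 mM MgCl2, crude extract at 1 mg/mL protein was incubated for 30 min with 10 μM compound. Aliquots were then heated for 3 min over 48°C-58°C and pooled, NP-40 was added to 0.5% at 4°C, and soluble protein was recovered as the supernatant at 21,000xg for 90 min. Channel-sum-equalised TMTpro 16plex LC-MS/MS quantified this protein. Each value, from duplicates, is a log-two fold change in thermal stability relative to solvent controls.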

Row | Target | log2 fold change
1 | TBC1D13 (UniProt Q9NVG8) | inactive: 0.034
2 | TBC1D2 (UniProt Q9BYX2) | inactive: 0.051
3 | TEX264 (UniProt Q9Y6I9) | inactive: -0.086
4 | TANGO6 (UniProt Q9C0B7) | inactive: 0.037
5 | TAOK3 (UniProt Q9H2K8) | inactive: -0.15
6 | TANK (UniProt Q92844) | inactive: 0.141
7 | TBC1D15 isoform 3 (UniProt Q8TC07) | inactive: -0.043
8 | TEX10 (UniProt Q9NXF1) | inactive: -0.025
9 | TBC1D20 isoform 3 (UniProt Q96BZ9) | inactive: -0.105
10 | TBC1D2B (UniProt Q9UPU7) | inactive: -0.096
11 | TAF6L (UniProt Q9Y6J9) | inactive: -0.042
12 | TAOK1 (UniProt Q7L7X3) | inactive: -0.136
13 | TBP (UniProt P20226) | inactive: 0.02
14 | TARS2 (UniProt Q9BW92) | inactive: -0.045
15 | TERF2 (UniProt Q15554) | inactive: -0.151
16 | TBCK (UniProt Q8TEA7) | inactive: -0.209
17 | TCEAL4 isoform 2 (UniProt Q96EI5) | inactive: 0.019

Row | Target | log2 fold change
18 | TBC1D22B (UniProt Q9NU19) | inactive: -0.012
19 | TBC1D8B (UniProt Q0IIM8) | inactive: 0.176
20 | TBC1D10A (UniProt Q9BXI6) | inactive: -0.096
21 | TFIP11 (UniProt Q9UBB9) | inactive: -0.097
22 | TFDP1 (UniProt Q14186) | inactive: 0.028
23 | TEPSIN, A0A1B0GV70 | inactive: -0.041
24 | TESC (UniProt Q96BS2) | inactive: -0.066
25 | TECR (UniProt Q9NZ01) | active: -0.448
26 | TET1 (UniProt Q8NFU7) | inactive: 0.562
27 | TFRC (UniProt P02786) | inactive: 0.019
28 | TBCE (UniProt Q15813) | inactive: -0.034
29 | TAF8 isoform 2 (UniProt Q7Z7C8) | inactive: 0.035
30 | TBCC (UniProt Q15814) | inactive: 0.024
31 | TAF9 (UniProt Q16594) | inactive: -0.002
32 | TAF9B (UniProt Q9HBM6) | inactive: 0.049
33 | TBL3 (UniProt Q12788) | inactive: -0.05

Compound: Cc1cc(Nc2cc(N3CCN(C)CC3)nc(Sc3ccc(NC(=O)C4CC4)cc3)n2)n[nH]1 [tozasertib]
Experiment: as above
In short: as §1

Row | Target | log2 fold change
34 | TBC1D13 (UniProt Q9NVG8) | inactive: -0.001
35 | TBC1D2 (UniProt Q9BYX2) | inactive: -0.043
36 | TEX264 (UniProt Q9Y6I9) | inactive: 0.05
37 | TANGO6 (UniProt Q9C0B7) | inactive: -0.023
38 | TAOK3 (UniProt Q9H2K8) | inactive: -0.016
39 | TANK (UniProt Q92844) | inactive: 0.108
40 | TBC1D15 isoform 3 (UniProt Q8TC07) | inactive: -0.006
41 | TEX10 (UniProt Q9NXF1) | inactive: -0.024
42 | TBC1D20 isoform 3 (UniProt Q96BZ9) | inactive: -0.017
43 | TBC1D2B (UniProt Q9UPU7) | inactive: -0.005
44 | TAF6L (UniProt Q9Y6J9) | inactive: 0.017
45 | TAOK1 (UniProt Q7L7X3) | inactive: -0.01
46 | TBP (UniProt P20226) | inactive: -0.262
47 | TARS2 (UniProt Q9BW92) | inactive: 0.025
48 | TERF2 (UniProt Q15554) | inactive: -0.004
49 | TBCK (UniProt Q8TEA7) | inactive: 0.014

Row | Target | log2 fold change
50 | TCEAL4 isoform 2 (UniProt Q96EI5) | inactive: 0.028
51 | TBC1D22B (UniProt Q9NU19) | inactive: 0
52 | TBC1D8B (UniProt Q0IIM8) | inactive: -0.011
53 | TFIP11 (UniProt Q9UBB9) | inactive: 0.051
54 | TFDP1 (UniProt Q14186) | inactive: 0.004
55 | TEPSIN, A0A1B0GV70 | inactive: 0.303
56 | TESC (UniProt Q96BS2) | inactive: 0.026
57 | TECR (UniProt Q9NZ01) | inactive: 0.056
58 | TET1 (UniProt Q8NFU7) | inactive: -0.049
59 | TFRC (UniProt P02786) | inactive: -0.006
60 | TBCE (UniProt Q15813) | inactive: -0.004
61 | TAF8 isoform 2 (UniProt Q7Z7C8) | inactive: 0.073
62 | TBCC (UniProt Q15814) | inactive: 0.013
63 | TAF9 (UniProt Q16594) | inactive: 0.156
64 | TAF9B (UniProt Q9HBM6) | inactive: 0.056
65 | TBL3 (UniProt Q12788) | inactive: -0.008

Compound: Cc1ccc(-n2nc(C(C)(C)C)cc2NC(=O)Nc2ccc(OCCN3CCOCC3)c3ccccc23)cc1 [doramapimod]
Experiment: as above
In short: as §1

Row | Target | log2 fold change
66 | TBC1D13 (UniProt Q9NVG8) | inactive: 0.007
67 | TBC1D2 (UniProt Q9BYX2) | inactive: 0.07
68 | TEX264 (UniProt Q9Y6I9) | inactive: -0.008
69 | TANGO6 (UniProt Q9C0B7) | inactive: 0.014
70 | TAOK3 (UniProt Q9H2K8) | inactive: -0.005
71 | TANK (UniProt Q92844) | inactive: -0.038
72 | TBC1D15 isoform 3 (UniProt Q8TC07) | inactive: 0
73 | TEX10 (UniProt Q9NXF1) | inactive: -0.046
74 | TBC1D20 isoform 3 (UniProt Q96BZ9) | inactive: -0.095
75 | TBC1D2B (UniProt Q9UPU7) | inactive: 0.007
76 | TAF6L (UniProt Q9Y6J9) | inactive: -0.019
77 | TAOK1 (UniProt Q7L7X3) | inactive: 0.028
78 | TBP (UniProt P20226) | inactive: 0.075
79 | TARS2 (UniProt Q9BW92) | inactive: 0.05
80 | TERF2 (UniProt Q15554) | inactive: -0.006
81 | TBCK (UniProt Q8TEA7) | inactive: 0.014
82 | TCEAL4 isoform 2 (UniProt Q96EI5) | inactive: 0.036

Row | Target | log2 fold change
83 | TBC1D22B (UniProt Q9NU19) | inactive: 0.01
84 | TBC1D8B (UniProt Q0IIM8) | inactive: 0.014
85 | TBC1D10A (UniProt Q9BXI6) | inactive: -0.113
86 | TFIP11 (UniProt Q9UBB9) | inactive: 0.043
87 | TFDP1 (UniProt Q14186) | inactive: 0.011
88 | TEPSIN, A0A1B0GV70 | inactive: -0.049
89 | TESC (UniProt Q96BS2) | inactive: 0.073
90 | TECR (UniProt Q9NZ01) | inactive: -0.045
91 | TET1 (UniProt Q8NFU7) | inactive: -0.018
92 | TFRC (UniProt P02786) | inactive: -0.003
93 | TBCE (UniProt Q15813) | inactive: 0.001
94 | TAF8 isoform 2 (UniProt Q7Z7C8) | inactive: 0.037
95 | TBCC (UniProt Q15814) | inactive: 0.046
96 | TAF9 (UniProt Q16594) | inactive: 0.001
97 | TAF9B (UniProt Q9HBM6) | inactive: 0
98 | TBL3 (UniProt Q12788) | inactive: -0.024
